Test results taken from patent publication US20170343557A1, “USE OF 5-METHOXYTRYPTOPHAN AS DIAGNOSTIC AGENT OF INFLAMMATORY DISEASES” (NATIONAL HEALTH RESEARCH INSTITUTES, priority 2014, published 2017).

Assay: Serum 5-MTP in murine sepsis model (LPS infusion)
Type: in vivo, C57BL/6 mice
Settings: n=8

In the case of COc1ccc2[nH]cc(C[C@H](N)C(=O)O)c2c1 [5-MTP, 5-methoxytryptophan], the “Serum 5-MTP level” value (mice 24 h after LPS infusion) is reported as 0.036 µM and the “Average serum 5-MTP level” value (mice prior to LPS treatment) is reported as 0.187 µM.
